From US20220313831A1 (BAYLOR COLLEGE OF MEDICINE, published 2022)
No constants are given. Whether binding was seen depends on the method and setting. A result given as binding can be weak or reduced; the word gives no strength. Where a sequence is shown, tags or fusion partners need not be part of it.

Columns and labels:
[1] = target: T1, IgG1 Fc linked recombinant human ALCAM (human) (UniProt Q13740); experiment: flow cytometry; transduced T cells stained with ALCAM-Fc and anti-human IgG1 Fc FITC
T1 sequence (looked up): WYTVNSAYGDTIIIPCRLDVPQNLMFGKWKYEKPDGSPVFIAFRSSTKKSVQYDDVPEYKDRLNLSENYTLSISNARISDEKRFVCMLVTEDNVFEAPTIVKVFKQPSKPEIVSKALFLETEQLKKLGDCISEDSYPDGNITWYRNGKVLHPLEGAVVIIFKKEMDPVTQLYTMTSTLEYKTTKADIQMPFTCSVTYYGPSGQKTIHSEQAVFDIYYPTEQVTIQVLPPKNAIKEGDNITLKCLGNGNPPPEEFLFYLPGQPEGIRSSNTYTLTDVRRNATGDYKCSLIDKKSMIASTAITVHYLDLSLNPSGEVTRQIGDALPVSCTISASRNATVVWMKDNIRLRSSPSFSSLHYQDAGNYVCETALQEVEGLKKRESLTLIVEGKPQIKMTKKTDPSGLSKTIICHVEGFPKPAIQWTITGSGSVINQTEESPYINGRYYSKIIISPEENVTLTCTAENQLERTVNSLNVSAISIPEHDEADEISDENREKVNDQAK

[2] = target: T1, IgG1 Fc linked recombinant human ALCAM (human); experiment: flow cytometry with ALCAM-fc (FIG. 6)

| Substance | binding [1] | binding [2] |
| --- | --- | --- |
| Monomer 1xD3 CD6 with signalling domain (1-D3) (receptor) | binds | binds |
| Monomer 1xD3 CD6 truncated/mutated (1-D3Δ) (receptor) | binds | binds |
